Values from PubChem BioAssay AID1159578 (Peter MacCallum Cancer Centre, 2015).

- Screen: 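siRNA pools altering how lymphatic endothelial cells close a scratch wound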 (primary screen)
- System: human lymphatic endothelial cells
- Reagent: siRNA pool against human genes, 40 nM
- Duration: 48 h after transfection
- Measurement: 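High-content imaging of dye-stained cells in a scratch assay measures filled wound area and nuclei per well; duplicate means given as ratio to mock and robust z-score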
- Direction: migration robust z-score: higher = faster migration into the scratch; migration relative to mock: higher = more scratch area covered than mock; nuclei per well: higher = more cells in the well
- Call rule: 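Migration changed when robust z exceeds 2 or falls below -2 and mean nuclei number is at least 3300; otherwise not called changed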
- Calls: active = migration changed; inactive = no migration change, or too few cells
Shown is one part, drawn at random, of about 18,000 reagents. About 1,030 of all reagents (5.7%) were called active. 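Inactive calls also include pools with fewer than 3300 nuclei, whose migration was not assessed.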 Raw values are not corrected between plates.

no.	target	PubChem SID	migration robust z-score	migration class with cell-count check	migration relative to mock	nuclei per well, duplicate mean	Outcome
1	MXRA8 (matrix remodeling associated 8)	SID255358100	-0.16	migration z between -2 and 2; enough cells	0.84	5448	inactive
2	DDX54 (DEAD-box helicase 54)	SID255360180	0.62	migration z between -2 and 2; enough cells	0.92	5654	inactive
3	DENND3 (DENN domain containing 3)	SID255355855	-0.66	migration z between -2 and 2; enough cells	0.72	4430	inactive
4	CT47A4 (cancer/testis antigen family 47 member A4)	SID255366176	-3.12	migration z below -2; enough cells	0.08	4940	active
5	DOLPP1 (dolichyldiphosphatase 1)	SID255359317	0.44	migration z between -2 and 2; enough cells	0.89	4582	inactive
6	TNS3 (tensin 3)	SID255359978	-0.64	migration z between -2 and 2; enough cells	0.68	5714	inactive
7	VPS37C (VPS37C subunit of ESCRT-I)	SID255358372	-1.86	under 3300 nuclei; migration not judged	0.41	2866	inactive
8	CACNA2D1	SID255348655	-2.3	migration z below -2; enough cells	0.36	4483	active
9	SERPINA7 (serpin family A member 7)	SID255352759	0.55	migration z between -2 and 2; enough cells	0.91	6012	inactive
10	TSPYL1 (TSPY like 1)	SID255352985	1.37	migration z between -2 and 2; enough cells	1.24	6672	inactive
11	PLBD1 (phospholipase B domain containing 1)	SID255360544	-0.74	migration z between -2 and 2; enough cells	0.69	4494	inactive
12	ACSM1 (acyl-CoA synthetase medium chain family member 1)	SID255362366	-0.83	migration z between -2 and 2; enough cells	0.64	4733	inactive
13	TMEM53 (transmembrane protein 53)	SID255360350	1.7	migration z between -2 and 2; enough cells	1.33	5817	inactive
14	TAS2R50 (taste 2 receptor member 50)	SID255364589	0.35	migration z between -2 and 2; enough cells	0.98	5556	inactive
15	CDH22 (cadherin 22)	SID255359918	-0.62	migration z between -2 and 2; enough cells	0.72	5048	inactive
16	TERF2IP (TERF2 interacting protein)	SID255357998	-0.34	migration z between -2 and 2; enough cells	0.74	4804	inactive
17	ALPK1 (alpha kinase 1)	SID255360708	-4.51	under 3300 nuclei; migration not judged	-0.06	2288	inactive
18	AGA (aspartylglucosaminidase)	SID255348231	1.09	migration z between -2 and 2; enough cells	1.02	5521	inactive
19	TBC1D2B (TBC1 domain family member 2B)	SID255355992	0.18	migration z between -2 and 2; enough cells	0.93	5459	inactive
20	GLB1L3 (galactosidase beta 1 like 3)	SID255362166	-1.81	migration z between -2 and 2; enough cells	0.42	5892	inactive
21	CDCA2 (cell division cycle associated 2)	SID255363622	0.11	migration z between -2 and 2; enough cells	0.91	6268	inactive
22	ESPL1 (extra spindle pole bodies like 1, separase)	SID255354483	0.65	migration z between -2 and 2; enough cells	0.93	3720	inactive
23	SCUBE2 (signal peptide, CUB domain and EGF like domain containing 2)	SID255359586	-0.62	migration z between -2 and 2; enough cells	0.72	6424	inactive
24	PAFAH1B2	SID255351402	-0.42	migration z between -2 and 2; enough cells	0.72	4886	inactive
25	CLK2 (CDC like kinase 2)	SID255348962	0.08	migration z between -2 and 2; enough cells	0.82	4610	inactive
26	PLAAT2 (phospholipase A and acyltransferase 2)	SID255358322	-0.94	migration z between -2 and 2; enough cells	0.64	5990	inactive
27	PLXNC1 (plexin C1)	SID255354852	0.92	migration z between -2 and 2; enough cells	1.12	4966	inactive
28	WFDC13 (WAP four-disulfide core domain 13)	SID255363807	-0.27	migration z between -2 and 2; enough cells	0.81	5876	inactive
29	P2RY12 (purinergic receptor P2Y12)	SID255360014	0.21	migration z between -2 and 2; enough cells	0.84	5744	inactive
30	SUMO3 (small ubiquitin like modifier 3)	SID255352532	-0.46	migration z between -2 and 2; enough cells	0.76	5130	inactive
31	RUNDC1 (RUN domain containing 1)	SID255363310	0.62	migration z between -2 and 2; enough cells	0.92	5397	inactive
32	FEZF2 (FEZ family zinc finger 2)	SID255358393	-2.26	migration z below -2; enough cells	0.31	4159	active
33	BTBD9 (BTB domain containing 9)	SID255362234	-0.01	migration z between -2 and 2; enough cells	0.88	6630	inactive
34	SCYL1 (SCY1 like pseudokinase 1)	SID255359379	-0.13	migration z between -2 and 2; enough cells	0.78	5226	inactive
35	LIN7C (lin-7 cell polarity scaffold C)	SID255358602	1.43	migration z between -2 and 2; enough cells	1.25	6433	inactive
36	CCDC12 (coiled-coil domain containing 12)	SID255363515	-0.92	migration z between -2 and 2; enough cells	0.65	7136	inactive
37	YKT6 (YKT6 vesicular SNARE protein)	SID255355259	1.12	migration z between -2 and 2; enough cells	1.18	5711	inactive
38	ATP1A1 (ATPase Na+/K+ transporting subunit alpha 1)	SID255348441	-0.38	migration z between -2 and 2; enough cells	0.73	4602	inactive
39	TNFRSF1B (TNF receptor superfamily member 1B)	SID255352917	-2.8	migration z below -2; enough cells	0.26	4402	active
40	ALX3 (ALX homeobox 3)	SID255348285	-1.14	migration z between -2 and 2; enough cells	0.58	4358	inactive
41	CNIH2 (cornichon family AMPA receptor auxiliary protein 2)	SID255364453	-0.11	migration z between -2 and 2; enough cells	0.86	6266	inactive
42	OR5AU1 (olfactory receptor family 5 subfamily AU member 1)	SID255365653	0.78	migration z between -2 and 2; enough cells	1.09	5510	inactive
43	BATF2 (basic leucine zipper ATF-like transcription factor 2)	SID255362343	-1.64	migration z between -2 and 2; enough cells	0.45	5822	inactive
44	DENND6B (DENN domain containing 6B)	SID255365871	2.92	migration z above 2; enough cells	1.64	6117	active
45	ATP5IF1 (ATP synthase inhibitory factor subunit 1)	SID255362097	0.52	migration z between -2 and 2; enough cells	1.02	5244	inactive
46	SLPI (secretory leukocyte peptidase inhibitor)	SID255352513	0.8	migration z between -2 and 2; enough cells	0.96	6360	inactive
47	DCAKD (dephospho-CoA kinase domain containing)	SID255360537	-0.56	migration z between -2 and 2; enough cells	0.74	5086	inactive
48	IL17D (interleukin 17D)	SID255357913	-1.04	migration z between -2 and 2; enough cells	0.62	4881	inactive
49	P3H4 (prolyl 3-hydroxylase family member 4 (inactive))	SID255355221	-1.27	migration z between -2 and 2; enough cells	0.55	4480	inactive
50	RAB21 (RAB21, member RAS oncogene family)	SID255355923	0.21	migration z between -2 and 2; enough cells	0.84	5659	inactive
51	TECTA (tectorin alpha)	SID255352810	-0.5	migration z between -2 and 2; enough cells	0.76	7214	inactive
52	RNF19A (ring finger protein 19A, RBR E3 ubiquitin protein ligase)	SID255356537	1.22	migration z between -2 and 2; enough cells	1.04	6112	inactive
53	IRAG2 (inositol 1,4,5-triphosphate receptor associated 2)	SID255350792	0.14	migration z between -2 and 2; enough cells	0.92	6076	inactive
54	TIFA (TRAF interacting protein with forkhead associated domain)	SID255362022	0.53	migration z between -2 and 2; enough cells	1.02	5590	inactive
55	ST6GALNAC4 (ST6 N-acetylgalactosaminide alpha-2,6-sialyltransferase 4)	SID255356911	0.57	migration z between -2 and 2; enough cells	0.92	6006	inactive
56	PRRG1 (proline rich and Gla domain 1)	SID255351847	0.32	migration z between -2 and 2; enough cells	0.97	5958	inactive
57	ETFRF1 (electron transfer flavoprotein regulatory factor 1)	SID255363220	1.63	migration z between -2 and 2; enough cells	1.3	7198	inactive
58	ZNF391 (zinc finger protein 391)	SID255365201	0.44	migration z between -2 and 2; enough cells	0.99	6450	inactive
59	FIBIN (fin bud initiation factor homolog)	SID255365455	-1.08	migration z between -2 and 2; enough cells	0.6	4894	inactive
60	ITIH1 (inter-alpha-trypsin inhibitor heavy chain 1)	SID255350558	-0.32	migration z between -2 and 2; enough cells	0.8	6744	inactive
61	TNRC18 (trinucleotide repeat containing 18)	SID255361428	-0.2	migration z between -2 and 2; enough cells	0.84	6252	inactive
62	NAB2 (NGFI-A binding protein 2)	SID255351133	-1.92	migration z between -2 and 2; enough cells	0.44	6504	inactive
63	ADGRG3 (adhesion G protein-coupled receptor G3)	SID255364344	-0.96	migration z between -2 and 2; enough cells	0.62	3664	inactive
64	PACSIN3 (protein kinase C and casein kinase substrate in neurons 3)	SID255357165	0.65	migration z between -2 and 2; enough cells	0.93	5155	inactive
65	NBPF1 (NBPF member 1)	SID255358768	-0.64	migration z between -2 and 2; enough cells	0.72	5000	inactive
66	MTNAP1 (mitochondrial nucleoid associated protein 1)	SID255358360	0.04	migration z between -2 and 2; enough cells	0.9	6324	inactive
67	CPLX2 (complexin 2)	SID255355373	1.58	migration z between -2 and 2; enough cells	1.3	6118	inactive
68	TFRC (transferrin receptor)	SID255352836	-0.06	migration z between -2 and 2; enough cells	0.8	4520	inactive
69	DYNLT3 (dynein light chain Tctex-type 3)	SID255352799	0.82	migration z between -2 and 2; enough cells	1.1	6242	inactive
70	AFG2B (AAA ATPase AFG2B)	SID255360172	0.68	migration z between -2 and 2; enough cells	1.06	6936	inactive
71	SLC6A3	SID255352462	0.62	migration z between -2 and 2; enough cells	0.92	4708	inactive
72	FCN3 (ficolin 3)	SID255353638	-0.34	migration z between -2 and 2; enough cells	0.8	6065	inactive
73	SUCNR1 (succinate receptor 1)	SID255359111	-0.78	migration z between -2 and 2; enough cells	0.66	6701	inactive

A stretch from the list above, as a working copy:
no.	target	PubChem SID	migration robust z-score	migration class with cell-count check	migration relative to mock	nuclei per well, duplicate mean	Outcome
24	PAFAH1B2	SID255351402	-0.42	migration z between -2 and 2; enough cells	0.72	4886	inactive
25	CLK2 (CDC like kinase 2)	SID255348962	0.08	migration z between -2 and 2; enough cells	0.82	4610	inactive
26	PLAAT2 (phospholipase A and acyltransferase 2)	SID255358322	-0.94	migration z between -2 and 2; enough cells	0.64	5990	inactive
27	PLXNC1 (plexin C1)	SID255354852	0.92	migration z between -2 and 2; enough cells	1.12	4966	inactive
28	WFDC13 (WAP four-disulfide core domain 13)	SID255363807	-0.27	migration z between -2 and 2; enough cells	0.81	5876	inactive
29	P2RY12 (purinergic receptor P2Y12)	SID255360014	0.21	migration z between -2 and 2; enough cells	0.84	5744	inactive
30	SUMO3 (small ubiquitin like modifier 3)	SID255352532	-0.46	migration z between -2 and 2; enough cells	0.76	5130	inactive
31	RUNDC1 (RUN domain containing 1)	SID255363310	0.62	migration z between -2 and 2; enough cells	0.92	5397	inactive
32	FEZF2 (FEZ family zinc finger 2)	SID255358393	-2.26	migration z below -2; enough cells	0.31	4159	active
33	BTBD9 (BTB domain containing 9)	SID255362234	-0.01	migration z between -2 and 2; enough cells	0.88	6630	inactive
